PubChem BioAssay AID1259254 – NCATS, 2017
This is a random part of about 59,000 reagents tested. About 1,550 of them (2.6%) were called active. 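G2 share is only a proxy for re-replication; each gene was hit by three separate siRNAs, and active genes were retested.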 Entries without a mark were called inactive. Reagents against one gene are numbered here. Further read-outs or replicates are left out here. Not stated in the record: the amount of reagent.

Assay: 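Gene knock-downs that lead to re-replication, shown by excess G2 DNA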 (primary screen)
System: human HCT116 colorectal cancer cells
Knock-down reagent: single siRNA against human genes
Timing: 3 days
Measured: 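Imaged Hoechst DNA stain sorts each cell into a cycle phase by DNA amount; per plate, G2 fraction set to 0% for non-targeting and 100% for GMNN siRNA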
Scale: G2 robust z-score: higher = more G2 cells, more excess DNA replication
Hit rule: 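An siRNA counts as active if its G2 robust z-score lies at least 5 MADs above the screen median; here such calls match roughly 38% of GMNN control or more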

For LCK (LCK proto-oncogene, Src family tyrosine kinase) #1, what does the deposit list?
G2 robust z-score: -0.772

With LCK (LCK proto-oncogene, Src family tyrosine kinase) #2, how do the results read?
G2 robust z-score: -0.516

For LCK (LCK proto-oncogene, Src family tyrosine kinase) #3, what was measured?
G2 robust z-score: -0.896

Which result is listed for SLX9 (SLX9 ribosome biogenesis factor) #1?
G2 robust z-score: -0.919

With SLX9 (SLX9 ribosome biogenesis factor) #2, how do the results read?
G2 robust z-score: -0.758

With SLX9 (SLX9 ribosome biogenesis factor) #3, what does the deposit list?
G2 robust z-score: 0.0597

For MDH2 (malate dehydrogenase 2) #1, how do the results read?
G2 robust z-score: -0.69

Which result is listed for MDH2 (malate dehydrogenase 2) #2?
G2 robust z-score: -1.38

For MDH2 (malate dehydrogenase 2) #3, what was measured?
G2 robust z-score: 1.02

Which result is listed for LTC4S (leukotriene C4 synthase) #1?
G2 robust z-score: -0.734

For LTC4S (leukotriene C4 synthase) #2, what was measured?
G2 robust z-score: -1.39

With LTC4S (leukotriene C4 synthase) #3, what does the deposit list?
G2 robust z-score: 2.6

With PPP1R35 (protein phosphatase 1 regulatory subunit 35) #1, what does the deposit list?
G2 robust z-score: 0.261

For PPP1R35 (protein phosphatase 1 regulatory subunit 35) #2, what was measured?
G2 robust z-score: 0.31

With PPP1R35 (protein phosphatase 1 regulatory subunit 35) #3, what was measured?
G2 robust z-score: 2.35

With SSH2 (slingshot protein phosphatase 2) #1, how do the results read?
G2 robust z-score: 1.47

With SSH2 (slingshot protein phosphatase 2) #2, what was measured?
G2 robust z-score: -0.819

For SSH2 (slingshot protein phosphatase 2) #3, what does the deposit list?
G2 robust z-score: -1.24

For CRTAM (cytotoxic and regulatory T cell molecule) #1, what does the deposit list?
G2 robust z-score: -1.22

For CRTAM (cytotoxic and regulatory T cell molecule) #2, how do the results read?
G2 robust z-score: -0.801

How did the screen score CRTAM (cytotoxic and regulatory T cell molecule) #3?
G2 robust z-score: -0.523

Which result is listed for FNDC8 (fibronectin type III domain containing 8) #1?
G2 robust z-score: 5 (active)

What is on record for FNDC8 (fibronectin type III domain containing 8) #2?
G2 robust z-score: -0.0131

How did the screen score FNDC8 (fibronectin type III domain containing 8) #3?
G2 robust z-score: -0.839
